Assay: general procedure: solution-phase peptide synthesis; DEPC/DIEA; TBTU/DIEA
Settings: for final HPLC purity: HPLC (AUC)

| Substance | step yield (late stage modification step) [%] | conjugation yield (conjugation step) | further results |
| --- | --- | --- | --- |
| Succinimide Ester of Suberyl-Val-Cit-PAB-MMAF | 29 | – | – |
| maleimidocaproyl-valine-citrulline-p-hydroxymethylaminobenzene-MMAF (MC-val-cit-PAB-MMAF) | 25 | – | – |
| Fmoc-MeVal-Val-Dil-Dap-Phe-ODMB | – | – | step yield (coupling step): 73%; final HPLC purity (coupling step): 93% purity by HPLC (AUC) |
| MC-MeVal-Val-Dil-Dap-Phe-ODMB | – | 57% | final HPLC purity (conjugation step): 94% purity by HPLC(AUC) |
| MeVal-Val-Dil-Dap-Phe-ODMB | 69 | – | final HPLC purity (late stage modification step): 96% purity by HPLC (AUC) |
| MB-MeVal-Val-Dil-Dap-Phe-OtBu | – | 46% yield | – |
| Fmoc-Val-Cit-PAB-MMAF | 40 | – | – |
| Fmoc-Val-Cit-PAB-MMAF-OtBu | – | 59% | – |
| MC-MeVal-Val-Dil-Dap-Phe-OH (MC-MMAF) | 73 | – | final HPLC purity (late stage modification step): 92% purity by HPLC |
| MeVal-Val-Dil-Dap-Phe-OtBu | 87 | – | – |
| MC-MeVal-Val-Dil-Dap-Phe-OtBu | – | 60% yield | – |
| MC-Val-Cit-PAB-MMAF t-butyl Ester | – | 71% | – |
| MC-MeVal-Cit-PAB-MMAF | – | 0.45% | – |

From patent US7964567B2 (Seattle Genetics, Inc., priority 2003, dated 2011)
